Parameters in all cases: species or system human
The nature of data set [1]: Identification and label-free relative LC-MS quantitation of HLA-presented peptides on tumor and normal tissue samples (XPRESIDENT presentation profiles). As to conditions: for Entities of particular interest: entities where the peptide was over-presented on cancer samples compared to normal tissues; for Additional entities of particular interest (presentation of selected peptides across entities): tumor entities on which the HLA-presented peptide was found, entity abbreviations defined in the title of Table 4B.

In data set [2] the test system is source genes of the peptides (mRNA) in tumor and normal tissue. The data set is described as follows: Expression profiling of source genes by RNAseq (target coverage). As to conditions: share of tumors with more than 1.5-fold over-expression vs highest-expressing relevant normal tissue.
Data set [3] has the same test system. Description: Expression profiling of source genes by Affymetrix microarrays (target coverage). As to conditions: over-expression = more than 1.5-fold higher expression on tumor vs. normal tissue with highest expression, gene with minimal coverage decisive; for Target coverage for source genes of selected peptides, BPHI/PCA (%): BPHI/PCA (prostate cancer) samples; for Target coverage for source genes of selected peptides, CRC (%): CRC tumor samples; for Target coverage for source genes of selected peptides, GB (%): GB tumor samples; for Target coverage for source genes of selected peptides, GC (%): GC tumor samples; for Target coverage for source genes of selected peptides, HCC (%): HCC tumor samples; for Target coverage for source genes of selected peptides, NSCLC (%): NSCLC tumor samples; for Target coverage for source genes of selected peptides, PC (%): PC tumor samples; for Target coverage for source genes of selected peptides, RCC (%): RCC tumor samples.

For some assays here: For expression read-outs the peptide stands for its source gene, whose mRNA was measured; the gene is not named for every peptide.

In the case of “8: peptide found in KIFC1 (gene looked up) (ALSSSQAEV; listed as Homo sapiens) [compound 8]”, in data set [1], the “Entities of particular interest” value is recorded as “GB, NSCLC, OC, CRC, PC” and the “Additional entities of particular interest (presentation of selected peptides across entities)” value is “BPH, OSCAR, SCLC, UBC, UTC, BRCA, GBC_CCC, MEL, AML, NHL”. In data set [2] (acute myeloid leukemia), the “Target coverage for source genes, AML (%)” value is “I (<19% over-expression = I)”. Further, in data set [2] (breast cancer), the “Target coverage for source genes, BRCA (%)” value is “I (<19% over-expression = I)”. Moreover, the “Target coverage for source genes, CLL (%)” value in data set [2] (chronic leukemia (CLL)) is reported as “I (<19% over-expression = I)”. The “Target coverage for source genes, OSCAR (%)” value in data set [2] (esophageal cancer incl. gastric-oesophageal junction) is “I (<19% over-expression = I)”. For the same substance, the “Target coverage for source genes, GBC_CCC (%)” value in data set [2] (gallbladder adenocarcinoma and cholangiocarcinoma) is “I (<19% over-expression = I)”. Also, the “Target coverage for source genes, MEL (%)” value in data set [2] (melanoma) is reported as “I (<19% over-expression = I)”. Also, in data set [2] (non-Hodgkin lymphoma), the “Target coverage for source genes, NHL (%)” value is listed as “I (<19% over-expression = I)”. In addition, in data set [2] (ovarian cancer), the “Target coverage for source genes, OC (%)” value is recorded as “I (<19% over-expression = I)”. In addition, in data set [2] (small cell lung cancer), the “Target coverage for source genes, SCLC (%)” value is given as “I (<19% over-expression = I)”. For the same substance, the “Target coverage for source genes, UBC (%)” value in data set [2] (urinary bladder cancer) is on record as “I (<19% over-expression = I)”. The “Target coverage for source genes, UTC (%)” value in data set [2] (uterine cancer) is reported as “I (<19% over-expression = I)”.

Turning to “114: peptide found in NCAPH (gene looked up) (LLFPSDVQTL; listed as Homo sapiens) [compound 114]”, in data set [3], the “Target coverage for source genes of selected peptides, BPHI/PCA (%)” value was “I (<19% over-expression = I)”; the “Target coverage for source genes of selected peptides, CRC (%)” value was “III (50-69% = III)”; the “Target coverage for source genes of selected peptides, GB (%)” value was “II (20-49% = II)”; the “Target coverage for source genes of selected peptides, GC (%)” value was “III (50-69% = III)”. Also, in data set [3], the “Target coverage for source genes of selected peptides, HCC (%)” value is reported as “I (<19% over-expression = I)”; the “Target coverage for source genes of selected peptides, NSCLC (%)” value was “III (50-69% = III)”; the “Target coverage for source genes of selected peptides, PC (%)” value is given as “I (<19% over-expression = I)”; the “Target coverage for source genes of selected peptides, RCC (%)” value is reported as “I (<19% over-expression = I)”. Moreover, the “Entities of particular interest” value in data set [1] is reported as “PC, OSCAR”.

As for “121: peptide found in TRIP13 (gene looked up) (ALYVQAPTV; listed as Homo sapiens) [compound 121]”, in data set [3], the “Target coverage for source genes of selected peptides, BPHI/PCA (%)” value is listed as “I (<19% over-expression = I)”; the “Target coverage for source genes of selected peptides, CRC (%)” value was “IV (>70% = IV)”; the “Target coverage for source genes of selected peptides, GB (%)” value was “IV (>70% = IV)”; the “Target coverage for source genes of selected peptides, GC (%)” value was “IV (>70% = IV)”. For the same substance, in data set [3], the “Target coverage for source genes of selected peptides, HCC (%)” value was “II (20-49% = II)”; the “Target coverage for source genes of selected peptides, NSCLC (%)” value was “IV (>70% = IV)”; the “Target coverage for source genes of selected peptides, PC (%)” value is “IV (>70% = IV)”; the “Target coverage for source genes of selected peptides, RCC (%)” value is reported as “II (20-49% = II)”. In data set [1], the “Additional entities of particular interest (presentation of selected peptides across entities)” value is given as “NSCLC, UTC, NHL”.

Regarding “122: peptide found in TRIP13 (gene looked up) (SIIDTELKV; listed as Homo sapiens) [compound 122]”, in data set [3], the “Target coverage for source genes of selected peptides, BPHI/PCA (%)” value was “I (<19% over-expression = I)”; the “Target coverage for source genes of selected peptides, CRC (%)” value is listed as “IV (>70% = IV)”; the “Target coverage for source genes of selected peptides, GB (%)” value is listed as “IV (>70% = IV)”; the “Target coverage for source genes of selected peptides, GC (%)” value is given as “IV (>70% = IV)”. In addition, in data set [3], the “Target coverage for source genes of selected peptides, HCC (%)” value was “II (20-49% = II)”; the “Target coverage for source genes of selected peptides, NSCLC (%)” value is recorded as “IV (>70% = IV)”; the “Target coverage for source genes of selected peptides, PC (%)” value is “IV (>70% = IV)”; the “Target coverage for source genes of selected peptides, RCC (%)” value is given as “II (20-49% = II)”. Also, the “Additional entities of particular interest (presentation of selected peptides across entities)” value in data set [1] is “AML”.

On to “239: peptide found in KIF11 (gene looked up) (VIIKGLEEITV; listed as Homo sapiens) [compound 239]”, for which, in data set [3], the “Target coverage for source genes of selected peptides, BPHI/PCA (%)” value is reported as “I (<19% over-expression = I)”; the “Target coverage for source genes of selected peptides, CRC (%)” value is “II (20-49% = II)”; the “Target coverage for source genes of selected peptides, GB (%)” value is given as “I (<19% over-expression = I)”; the “Target coverage for source genes of selected peptides, GC (%)” value is recorded as “I (<19% over-expression = I)”. In data set [3], the “Target coverage for source genes of selected peptides, HCC (%)” value is reported as “I (<19% over-expression = I)”; the “Target coverage for source genes of selected peptides, NSCLC (%)” value is reported as “I (<19% over-expression = I)”; the “Target coverage for source genes of selected peptides, PC (%)” value was “I (<19% over-expression = I)”; the “Target coverage for source genes of selected peptides, RCC (%)” value was “I (<19% over-expression = I)”. In data set [1], the “Entities of particular interest” value is listed as “GC, NSCLC, HCC, OC, MEL, CRC, PC” and the “Additional entities of particular interest (presentation of selected peptides across entities)” value is “CLL, SCLC, UBC, UTC, AML, NHL”.

As to “240: peptide found in KIF11 (gene looked up) (SVQENIQQK; listed as Homo sapiens) [compound 240]”, in data set [3], the “Target coverage for source genes of selected peptides, BPHI/PCA (%)” value is on record as “I (<19% over-expression = I)”; the “Target coverage for source genes of selected peptides, CRC (%)” value is recorded as “II (20-49% = II)”; the “Target coverage for source genes of selected peptides, GB (%)” value is “I (<19% over-expression = I)”; the “Target coverage for source genes of selected peptides, GC (%)” value was “I (<19% over-expression = I)”. Besides, in data set [3], the “Target coverage for source genes of selected peptides, HCC (%)” value is given as “I (<19% over-expression = I)”; the “Target coverage for source genes of selected peptides, NSCLC (%)” value was “I (<19% over-expression = I)”; the “Target coverage for source genes of selected peptides, PC (%)” value is listed as “I (<19% over-expression = I)”; the “Target coverage for source genes of selected peptides, RCC (%)” value is “I (<19% over-expression = I)”. The “Additional entities of particular interest (presentation of selected peptides across entities)” value in data set [1] is listed as “RCC, NHL”.

For the substance “247: peptide found in CDK1 (gene looked up) (NLLIDDKGTIKL; listed as Homo sapiens) [compound 247]”, in data set [3], the “Target coverage for source genes of selected peptides, BPHI/PCA (%)” value is recorded as “I (<19% over-expression = I)”; the “Target coverage for source genes of selected peptides, CRC (%)” value is given as “IV (>70% = IV)”; the “Target coverage for source genes of selected peptides, GB (%)” value was “IV (>70% = IV)”; the “Target coverage for source genes of selected peptides, GC (%)” value was “IV (>70% = IV)”. In addition, in data set [3], the “Target coverage for source genes of selected peptides, HCC (%)” value is “II (20-49% = II)”; the “Target coverage for source genes of selected peptides, NSCLC (%)” value is “IV (>70% = IV)”; the “Target coverage for source genes of selected peptides, PC (%)” value was “III (50-69% = III)”; the “Target coverage for source genes of selected peptides, RCC (%)” value was “II (20-49% = II)”. The “Entities of particular interest” value in data set [1] was “NSCLC, HCC, MEL, CRC, PC”.

Take “285: peptide found in NCAPG2 (gene looked up) (MLLDTVQKV; listed as Homo sapiens) [compound 285]”: in data set [3], the “Target coverage for source genes of selected peptides, BPHI/PCA (%)” value is “I (<19% over-expression = I)”; the “Target coverage for source genes of selected peptides, CRC (%)” value is reported as “II (20-49% = II)”; the “Target coverage for source genes of selected peptides, GB (%)” value is “I (<19% over-expression = I)”; the “Target coverage for source genes of selected peptides, GC (%)” value was “I (<19% over-expression = I)”. Moreover, in data set [3], the “Target coverage for source genes of selected peptides, HCC (%)” value is on record as “I (<19% over-expression = I)”; the “Target coverage for source genes of selected peptides, NSCLC (%)” value is “I (<19% over-expression = I)”; the “Target coverage for source genes of selected peptides, PC (%)” value is “I (<19% over-expression = I)”; the “Target coverage for source genes of selected peptides, RCC (%)” value was “I (<19% over-expression = I)”. Besides, the “Additional entities of particular interest (presentation of selected peptides across entities)” value in data set [1] is “NSCLC”.

As to “287: peptide found in IGF2BP3 (gene looked up) (KIQEILTQV; listed as Homo sapiens) [compound 287]”, in data set [3], the “Target coverage for source genes of selected peptides, BPHI/PCA (%)” value is “I (<19% over-expression = I)”; the “Target coverage for source genes of selected peptides, CRC (%)” value is given as “II (20-49% = II)”; the “Target coverage for source genes of selected peptides, GB (%)” value is “IV (>70% = IV)”; the “Target coverage for source genes of selected peptides, GC (%)” value is “II (20-49% = II)”. In addition, in data set [3], the “Target coverage for source genes of selected peptides, HCC (%)” value is reported as “III (50-69% = III)”; the “Target coverage for source genes of selected peptides, NSCLC (%)” value is “IV (>70% = IV)”; the “Target coverage for source genes of selected peptides, PC (%)” value is reported as “IV (>70% = IV)”; the “Target coverage for source genes of selected peptides, RCC (%)” value is given as “II (20-49% = II)”. Also, the “Entities of particular interest” value in data set [1] is “GB, GC, NSCLC, HCC, CLL, OC, MEL, RCC, CRC, PC, OSCAR”.

Source of the values: patent US20160279215A1, “NOVEL PEPTIDES AND COMBINATION OF PEPTIDES FOR USE IN IMMUNOTHERAPY AGAINST VARIOUS TUMORS” (immatics biotechnologies GmbH, priority 2015, published 2016).
